Test results published in paper PMC7862700.
The list shows a part of the results, in another mix than the full data. For some of these results: At the low end of the ranking the order means little. Some of the results follow. For some of these results: The source does not settle which construct or isoform was used.

The chains behind the UniProt entries cited, without tags or fusion partners. Where a name states a change or a piece, a line headed by the entry shows the natural chain unless it says otherwise.
UniProt Q00613: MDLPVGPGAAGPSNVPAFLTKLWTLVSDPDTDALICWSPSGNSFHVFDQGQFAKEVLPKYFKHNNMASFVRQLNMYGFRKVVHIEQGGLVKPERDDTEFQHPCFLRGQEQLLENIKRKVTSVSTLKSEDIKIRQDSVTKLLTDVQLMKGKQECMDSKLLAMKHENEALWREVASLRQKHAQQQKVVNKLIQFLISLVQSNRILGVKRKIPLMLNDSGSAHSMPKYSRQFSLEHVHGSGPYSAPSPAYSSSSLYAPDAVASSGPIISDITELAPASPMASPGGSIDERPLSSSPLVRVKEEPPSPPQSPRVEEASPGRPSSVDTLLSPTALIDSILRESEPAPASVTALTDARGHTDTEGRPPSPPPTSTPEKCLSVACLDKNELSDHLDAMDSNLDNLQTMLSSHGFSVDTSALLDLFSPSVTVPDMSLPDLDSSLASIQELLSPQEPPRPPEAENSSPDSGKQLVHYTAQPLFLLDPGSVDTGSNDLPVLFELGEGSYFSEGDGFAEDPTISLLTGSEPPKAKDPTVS

These sequences were tested against HSF1 (UniProt Q00613) (assay: DAPPL (digital affinity profiling via proximity ligation, sequencing)). Settings: 10 mM Tris-HCl pH 7.5, 50 mM NaCl, 1 mM DTT, 4% glycerol, room temperature, 30 min; GST-TFs on glutathione beads, 16-mer random dsDNA library, 0.1% …; high values mean tight binding; double strand, one strand shown; scale: fold enrichment (6-mer frequency, TF over GST control).
CAGCGG gave a binding signal of 0.325.
Work on GGAGCG yielded a binding signal of 0.322.
With TACGTG the binding signal was 0.636.
For AGCCAT, the binding signal was 0.791.
CGAGCC was tested, and the binding signal was 0.811.
GGACAG showed a binding signal of 0.466.
ATGGAG gave a binding signal of 0.538.
For GAGGTG, the binding signal was 0.41.
GTATAG gave a binding signal of 0.858.
Work on AGAGTA yielded a binding signal of 0.799.
CCATCG was tested, and the binding signal was 0.856.
GGTCAT gave a binding signal of 0.668.
For GCGTGG, the binding signal was 0.463.
Sequence AGCAGT has a binding signal of 0.623.
CCGTGC gave a binding signal of 0.491.
With CGCGGT the binding signal was 0.707.
With GACTGT the binding signal was 0.425.
With CGTGAC the binding signal was 0.433.
Work on AGTTGA yielded a binding signal of 0.677.
Work on ACCGGG yielded a binding signal of 0.39.
In the case of CATGTG, the binding signal is reported as 0.685.
Work on GATAGG yielded a binding signal of 0.757.
GTAGTC was tested, and the binding signal was 0.547.
GGGACC showed a binding signal of 0.496.
Work on GCGTCG yielded a binding signal of 0.648.
Sequence GTGTAT has a binding signal of 0.773.
With AGGATC the binding signal was 1.08.
With ACAGCG the binding signal was 0.623.
Sequence GCATGT has a binding signal of 0.676.
Sequence TCGCAG has a binding signal of 0.831.
For AAGAGT, the binding signal was 0.901.
With AGTGAT the binding signal was 0.809.
With ACAGTG the binding signal was 0.436.
Work on CAAGTC yielded a binding signal of 0.751.
In the case of GGGCGA, the binding signal is reported as 0.763.
For GGGGCA, the binding signal was 0.517.
Work on CAGCAA yielded a binding signal of 0.952.
For GTTGAG, the binding signal was 0.614.

The sequences below were run against T1, ELF2 (UniProt Q15723) in the same assay as above. Settings: 10 mM Tris-HCl pH 7.5, 50 mM NaCl, 1 mM DTT, 4% glycerol, room temperature, 30 min; GST-TFs on glutathione beads, 16-mer random dsDNA library, 0.1% …; high values mean tight binding; double strand, one strand shown; scale: fold enrichment (6-mer frequency, TF over GST control).
T1 sequence: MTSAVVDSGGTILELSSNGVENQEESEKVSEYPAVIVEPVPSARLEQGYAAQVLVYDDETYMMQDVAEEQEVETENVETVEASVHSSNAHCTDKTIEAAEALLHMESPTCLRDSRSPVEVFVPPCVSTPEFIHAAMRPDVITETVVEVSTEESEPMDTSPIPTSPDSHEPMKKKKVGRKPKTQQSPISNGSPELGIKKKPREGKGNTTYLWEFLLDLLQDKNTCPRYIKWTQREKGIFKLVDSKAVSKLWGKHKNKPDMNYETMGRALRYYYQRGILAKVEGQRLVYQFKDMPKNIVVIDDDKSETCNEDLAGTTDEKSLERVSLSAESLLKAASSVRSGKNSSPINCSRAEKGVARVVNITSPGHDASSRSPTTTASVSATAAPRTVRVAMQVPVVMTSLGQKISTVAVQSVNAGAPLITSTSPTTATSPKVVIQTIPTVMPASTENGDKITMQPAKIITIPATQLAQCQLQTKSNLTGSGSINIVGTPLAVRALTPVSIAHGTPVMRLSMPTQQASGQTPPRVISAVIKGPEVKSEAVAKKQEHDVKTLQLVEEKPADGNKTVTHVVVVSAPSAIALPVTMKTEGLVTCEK
For CAGCGG, the binding signal was 0.466.
For GGAGCG, the binding signal was 0.387.
TACGTG gave a binding signal of 0.66.
AGCCAT gave a binding signal of 0.824.
CGAGCC showed a binding signal of 0.784.
In the case of GGACAG, the binding signal is reported as 0.534.
With ATGGAG the binding signal was 0.555.
GAGGTG was tested, and the binding signal was 0.491.
For GTATAG, the binding signal was 0.943.
AGAGTA was tested, and the binding signal was 0.762.
CCATCG gave a binding signal of 0.782.
GGTCAT gave a binding signal of 0.824.
GCGTGG gave a binding signal of 0.525.
Work on AGCAGT yielded a binding signal of 0.712.
For CCGTGC, the binding signal was 0.614.
For CGCGGT, the binding signal was 0.898.
For GACTGT, the binding signal was 0.418.
With CGTGAC the binding signal was 0.539.
Work on AGTTGA yielded a binding signal of 0.794.
Work on ACCGGG yielded a binding signal of 0.526.
Work on CATGTG yielded a binding signal of 0.786.
For GATAGG, the binding signal was 0.813.
In the case of GTAGTC, the binding signal is reported as 0.696.
GGGACC gave a binding signal of 0.635.
In the case of GCGTCG, the binding signal is reported as 0.753.
Sequence GTGTAT has a binding signal of 0.95.
In the case of AGGATC, the binding signal is reported as 0.836.
Work on ACAGCG yielded a binding signal of 0.797.
GCATGT showed a binding signal of 0.769.
With TCGCAG the binding signal was 0.875.
For AAGAGT, the binding signal was 0.871.
AGTGAT was tested, and the binding signal was 0.908.
Sequence ACAGTG has a binding signal of 0.459.
CAAGTC gave a binding signal of 0.788.
GGGCGA gave a binding signal of 0.741.
In the case of GGGGCA, the binding signal is reported as 0.655.
CAGCAA was tested, and the binding signal was 0.903.
For GTTGAG, the binding signal was 0.633.
